# Literature values in patent publication EP1231468A1, “METHOD FOR DETECTING EXOGENOUS ENDOCRINE DISRUPTING CHEMICAL AND DETECTION APPARATUS” (Central Research Institute of Electric Power Industry, priority 1999, dated 2001).
# Read-outs that look alike come from different tables or passages of the source. At least one compound was matched to its structure with a doubt left.
# Legend:
# [1] = estradiol as detected substance; Radioreceptor assay; cited from earlier work
# [2] = estradiol as detected substance; Immunoassay; cited from earlier work
# [3] = estradiol as detected substance; Fluorescence depolarization; cited from earlier work
# recombinant yeast = conditions: estradiol as detected substance; Method using recombinant yeast; cited from earlier work
structure (smiles),measurement,setting,value
"C[C@]12CC[C@@H]3c4ccc(O)cc4CC[C@H]3[C@@H]1CC[C@@H]2O [17β-estradiol, 17 β -estradiol]",Detection range (pM),[1],50 to 1000 pM
same,Detection range (pM),[2],370 to 37000 pM
same,Detection range (pM),[3],1000 to 100000 pM
same,Detection range (pM),recombinant yeast,100 pM
